In US12121500B2, “Inhibitors of Bunyaviridae and uses thereof” (priority 2020, dated 2024):

Legend:
[1] = system: HepDES19; test: Cytotoxicity in HepDES19 cells, MTS assay; settings: therapeutic index CC50/EC50, HepDES19 cells after three days
[2] = system: Vero cells; test: Quantitative cytotoxicity in Vero cells, crystal violet staining of EC50 plates; settings: therapeutic index CC50/EC50, Vero cells after one day

Cc1cc(O)c(=O)c(O)cc1C(=O)NCc1ccccc1 [Compound 388]
TI HepDES19 [1]: 2.2
TI Vero [2]: 26.6

Cc1cc(O)c(=O)c(O)cc1C(=O)c1cccs1 [Compound 308]
TI HepDES19 [1]: 47.8
TI Vero [2]: 402

O=C1C=CC(=O)c2ccccc21 [Compound 327]
TI HepDES19 [1]: 0.5
TI Vero [2]: 1.1

Cc1cc(O)c(=O)c(O)cc1C(=O)N1CCCCC1 [Compound 390]
TI HepDES19 [1]: 2.5
TI Vero [2]: 21

CC(C)c1ccc(O)c(=O)c(O)c1 [Compound 46, β-thujaplicinol]
TI HepDES19 [1]: 1.8
TI Vero [2]: 18.1

Cc1cc(O)c(=O)c(O)cc1C(=O)Nc1ccccc1 [Compound 389]
TI HepDES19 [1]: 3.0
TI Vero [2]: 28.4

Cc1cc(O)c(=O)c(O)cc1C(=O)NCc1ccc(-c2ccccc2)cc1 [Compound 539]
TI HepDES19 [1]: <1.0
TI Vero [2]: 16.1

C/C(=N\c1ccccc1Cl)c1c(C)cc(O)n(O)c1=O [Compound 668]
TI HepDES19 [1]: 4.0
TI Vero [2]: 6.2

Cc1cc(O)c(=O)c(O)cc1C(=O)c1ccc(-c2ccccc2)cc1 [Compound 118]
TI HepDES19 [1]: 1.5
TI Vero [2]: 22.5

Cc1cc(O)c(=O)c(O)cc1C(=O)c1cccc(Br)c1 [Compound 359]
TI HepDES19 [1]: 3.8
TI Vero [2]: 33.3

CCCCCCSc1cccc(O)c(=O)c1O [Compound 840]
TI HepDES19 [1]: <1.0
TI Vero [2]: 3.8

Cc1cc(O)c(=O)c(O)cc1C(=O)c1ccccc1O [Compound 311]
TI HepDES19 [1]: 2.7
TI Vero [2]: 21.6

Cc1cc(O)c(=O)c(O)cc1C(=O)N1CCN(C(c2ccc(F)cc2)c2ccc(F)cc2)CC1 [Compound 1017]
TI HepDES19 [1]: <1.0
TI Vero [2]: 6.8

CC1=CC(O)N(O)C(O)=C1/C(C)=N/c1ccccc1N (stereo not drawn) [Compound 208]
TI HepDES19 [1]: <1.0
TI Vero [2]: <1.0

CC(=O)c1c(C)cc(O)c(=O)c(O)c1Cl [Compound 368]
TI HepDES19 [1]: 1.2
TI Vero [2]: 9.8

CC(=O)c1c(C)cc(O)c(=O)c(O)c1-c1ccccc1 [Compound 330]
TI HepDES19 [1]: 5.9
TI Vero [2]: 31.6

Cc1cc(O)c(=O)c(O)cc1-c1ccccc1 [Compound 113]
TI HepDES19 [1]: 4.6
TI Vero [2]: 24.3

Cc1cc(O)c(=O)c(O)c(O)c1C(=O)c1ccc(-c2ccccc2)cc1 [Compound 362]
TI HepDES19 [1]: 2.1
TI Vero [2]: 29.9

Cc1cc(O)c(=O)c(O)cc1C(=O)c1ccccc1 [Compound 111]
TI HepDES19 [1]: 1.9
TI Vero [2]: 13.2

CC(=O)c1c(C)cc(O)c(=O)c(O)c1Br [Compound 320]
TI HepDES19 [1]: 2.5
TI Vero [2]: 6.0

Cc1cc(O)c(=O)c(O)cc1C(=O)NC(CCC(=O)OC(C)(C)C)C(=O)OC(C)(C)C (stereo not drawn) [Compound 867]
TI HepDES19 [1]: <1.0
TI Vero [2]: 13.8

COC(=O)c1c(C)cc(O)c(=O)c(O)c1Br [Compound 335]
TI HepDES19 [1]: 6.0
TI Vero [2]: 2.9

Cc1cc(O)c(=O)c(O)cc1C(=O)c1ccc(Br)cc1 [Compound 358]
TI HepDES19 [1]: 1.4
TI Vero [2]: 27.8

CSc1cccc(O)c(=O)c1O [Compound 385]
TI HepDES19 [1]: 4.0
TI Vero [2]: 9.9

Cc1ccc(/C=C/C(=O)c2ccccc(=O)c2O)cc1 [Compound 340]
TI HepDES19 [1]: 0.7
TI Vero [2]: 2.6

Cc1cc(O)c(=O)c(O)cc1C(=O)c1ccc(-c2ccncc2)cc1 [Compound 260]
TI HepDES19 [1]: 1.4
TI Vero [2]: 7.9

Cc1ccc(Sc2cccc(O)c(=O)c2O)cc1 [Compound 838]
TI HepDES19 [1]: 1.5
TI Vero [2]: 23.6

O=c1c(O)ccc(-c2ccco2)cc1O [Compound 265]
TI HepDES19 [1]: 1.7
TI Vero [2]: 16.2

CCc1cccc(N=C(C)c2c(C)cc(=O)n(O)c2O)c1 [Compound 518]
TI HepDES19 [1]: 4.6
TI Vero [2]: 6.0

Cc1ccc(O)c(=O)c(O)c1 [Compound 210]
TI HepDES19 [1]: 4.9
TI Vero [2]: 19.4

Cc1cc(O)c(=O)c(O)cc1C(=O)C1CCCCC1 [Compound 120]
TI HepDES19 [1]: 2.7
TI Vero [2]: 16.0

CC[C@H](C)[C@H](NC(=O)OCC1c2ccccc2-c2ccccc21)C(=O)Sc1cccccc1=O [Compound 686]
TI HepDES19 [1]: <1.0
TI Vero [2]: 1.0

C/C(=N\c1ccc(C(F)(F)F)cc1)c1c(C)cc(=O)n(O)c1O [Compound 517]
TI HepDES19 [1]: <1.0
TI Vero [2]: 1.0

CCCCSc1ccc(SCCCC)c(O)c(=O)c1O [Compound 694]
TI HepDES19 [1]: <1.0
TI Vero [2]: 6.0

C/C(=N\c1ccc(Cl)c(Cl)c1)c1c(C)cc(O)n(O)c1=O [Compound 670]
TI HepDES19 [1]: 4.9
TI Vero [2]: 8.6

O=C(Cc1ccccc1)Sc1cccccc1=O [Compound 680]
TI HepDES19 [1]: <1.0
TI Vero [2]: 1.0

C/C(=N\c1cccc(Oc2ccccc2)c1)c1c(C)cc(=O)n(O)c1O [Compound 515]
TI HepDES19 [1]: 2.9
TI Vero [2]: 4.9

CC(=O)c1c(C)cc(O)c(=O)c(O)c1-c1cccc2ccccc12 [Compound 331]
TI HepDES19 [1]: 2.3
TI Vero [2]: 5.1

COC(=O)c1c(C)cc(O)c(=O)c(O)c1O [Compound 196]
TI HepDES19 [1]: 0.3
TI Vero [2]: 10.5
